Some of the results follow. Residues, ends and D or L forms follow the SMILES beside them. *: point of attachment. Cbz = O=C(OCc1ccccc1)*
Key:
Assay in all cases: log2 fold change, soluble protein after heating vs DMSO (PISA); higher = thermal stabilisation; K562 cells, 10 uM, 30 min; active = over 0.2 and 3.5 SD of the protein, either way, in both replicates (recomputed)
erlotinib = compound: C#Cc1cccc(Nc2ncnc3cc(OCCOC)c(OCCOC)cc23)c1 [erlotinib]
In short: (§1)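 K562 cells (2×10^6 cells/mL) were treated with 10 μM compound for 30 min, and aliquots were heated for 3 min over 48°C-58°C. Pooled aliquots were extracted in PBS with 0.5% NP-40 at 4°C, and the supernatant after 21,000xg for 90 min was measured by TMTpro 16plex LC-MS/MS with channel sums equalised. Reported thermal stability, relative to control samples and from duplicates, is a log2 fold change.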

By UniProt entry, the sequences of proteins in these tests, tags left out. Where a name states a change or a piece, a line headed by the entry shows the natural chain unless it says otherwise.
UniProt P23786: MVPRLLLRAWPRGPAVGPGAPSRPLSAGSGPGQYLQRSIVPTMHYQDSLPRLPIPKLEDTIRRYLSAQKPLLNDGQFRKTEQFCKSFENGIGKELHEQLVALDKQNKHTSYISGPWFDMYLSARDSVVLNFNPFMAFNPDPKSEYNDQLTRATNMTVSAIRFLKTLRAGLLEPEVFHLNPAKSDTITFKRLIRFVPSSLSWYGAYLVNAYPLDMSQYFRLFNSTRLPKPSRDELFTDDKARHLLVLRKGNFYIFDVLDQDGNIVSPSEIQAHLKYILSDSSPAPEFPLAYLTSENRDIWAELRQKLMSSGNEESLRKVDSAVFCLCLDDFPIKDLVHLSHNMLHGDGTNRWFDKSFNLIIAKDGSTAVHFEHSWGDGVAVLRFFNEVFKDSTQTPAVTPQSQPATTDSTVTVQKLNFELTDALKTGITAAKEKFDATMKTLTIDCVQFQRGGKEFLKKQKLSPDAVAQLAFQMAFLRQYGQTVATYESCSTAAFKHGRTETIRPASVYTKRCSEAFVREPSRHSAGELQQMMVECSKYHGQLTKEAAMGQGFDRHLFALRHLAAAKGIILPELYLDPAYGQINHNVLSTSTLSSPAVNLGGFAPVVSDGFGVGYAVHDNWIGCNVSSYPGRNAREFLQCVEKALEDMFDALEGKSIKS
UniProt Q03060: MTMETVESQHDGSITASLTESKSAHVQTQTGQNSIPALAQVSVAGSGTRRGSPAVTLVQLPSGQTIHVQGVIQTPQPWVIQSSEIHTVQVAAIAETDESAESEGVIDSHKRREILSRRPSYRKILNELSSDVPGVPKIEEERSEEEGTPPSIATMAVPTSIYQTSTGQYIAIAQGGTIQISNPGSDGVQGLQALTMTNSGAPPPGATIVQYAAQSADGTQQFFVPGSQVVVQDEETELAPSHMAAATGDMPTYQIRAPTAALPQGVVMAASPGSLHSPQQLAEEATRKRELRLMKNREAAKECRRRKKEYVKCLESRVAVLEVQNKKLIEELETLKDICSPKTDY
UniProt Q7Z5Q1: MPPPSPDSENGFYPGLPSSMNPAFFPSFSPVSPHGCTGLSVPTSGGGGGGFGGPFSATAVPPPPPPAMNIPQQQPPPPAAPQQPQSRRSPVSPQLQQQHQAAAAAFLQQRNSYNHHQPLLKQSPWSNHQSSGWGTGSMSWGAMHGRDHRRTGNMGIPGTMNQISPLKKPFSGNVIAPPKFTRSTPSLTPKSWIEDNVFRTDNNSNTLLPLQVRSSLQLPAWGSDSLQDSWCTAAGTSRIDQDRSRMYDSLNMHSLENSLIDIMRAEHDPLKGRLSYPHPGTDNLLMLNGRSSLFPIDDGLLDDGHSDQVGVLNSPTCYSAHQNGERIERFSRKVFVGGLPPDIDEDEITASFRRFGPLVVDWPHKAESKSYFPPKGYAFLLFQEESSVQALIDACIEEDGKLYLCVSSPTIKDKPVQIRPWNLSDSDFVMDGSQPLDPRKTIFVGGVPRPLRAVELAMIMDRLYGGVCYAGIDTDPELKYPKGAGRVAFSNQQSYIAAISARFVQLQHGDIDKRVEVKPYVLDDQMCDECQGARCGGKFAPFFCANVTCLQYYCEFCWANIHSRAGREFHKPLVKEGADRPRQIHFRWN
UniProt Q9UNS2: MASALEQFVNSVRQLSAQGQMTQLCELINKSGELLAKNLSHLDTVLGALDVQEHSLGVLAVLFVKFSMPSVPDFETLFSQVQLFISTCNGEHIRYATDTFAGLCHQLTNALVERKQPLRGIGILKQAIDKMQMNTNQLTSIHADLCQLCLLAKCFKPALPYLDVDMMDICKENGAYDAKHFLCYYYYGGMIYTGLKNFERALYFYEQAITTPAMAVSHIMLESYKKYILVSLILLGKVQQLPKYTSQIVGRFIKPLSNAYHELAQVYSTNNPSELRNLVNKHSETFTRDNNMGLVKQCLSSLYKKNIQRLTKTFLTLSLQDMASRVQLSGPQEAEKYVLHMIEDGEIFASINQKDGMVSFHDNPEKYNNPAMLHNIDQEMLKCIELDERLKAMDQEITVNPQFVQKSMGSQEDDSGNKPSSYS
UniProt Q8IUI8: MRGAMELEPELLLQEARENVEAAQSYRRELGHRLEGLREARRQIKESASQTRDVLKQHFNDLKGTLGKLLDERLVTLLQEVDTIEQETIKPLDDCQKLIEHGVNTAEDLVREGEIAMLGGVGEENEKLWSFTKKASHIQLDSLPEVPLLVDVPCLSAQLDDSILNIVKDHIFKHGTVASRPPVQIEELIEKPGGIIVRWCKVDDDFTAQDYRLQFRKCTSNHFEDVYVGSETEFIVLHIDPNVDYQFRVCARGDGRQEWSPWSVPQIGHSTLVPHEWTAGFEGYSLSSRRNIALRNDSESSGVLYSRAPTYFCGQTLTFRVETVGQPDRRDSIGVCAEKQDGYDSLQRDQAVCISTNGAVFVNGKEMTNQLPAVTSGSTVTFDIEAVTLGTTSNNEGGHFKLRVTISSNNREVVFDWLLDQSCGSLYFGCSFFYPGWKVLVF
UniProt O75208: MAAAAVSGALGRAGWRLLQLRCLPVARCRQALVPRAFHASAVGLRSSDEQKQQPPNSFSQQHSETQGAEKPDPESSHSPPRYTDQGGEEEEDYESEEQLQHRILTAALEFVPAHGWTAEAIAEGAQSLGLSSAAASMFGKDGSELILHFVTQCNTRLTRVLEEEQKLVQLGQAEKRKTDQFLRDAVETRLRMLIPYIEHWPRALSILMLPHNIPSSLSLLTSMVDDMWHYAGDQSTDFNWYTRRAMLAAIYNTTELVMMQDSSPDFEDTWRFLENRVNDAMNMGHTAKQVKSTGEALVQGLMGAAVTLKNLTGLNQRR
UniProt Q99627: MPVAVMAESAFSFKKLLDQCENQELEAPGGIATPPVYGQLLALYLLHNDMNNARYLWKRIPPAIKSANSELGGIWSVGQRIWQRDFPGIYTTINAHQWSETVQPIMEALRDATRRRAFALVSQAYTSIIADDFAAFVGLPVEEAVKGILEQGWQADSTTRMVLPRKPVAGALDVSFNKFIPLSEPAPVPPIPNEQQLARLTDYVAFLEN
UniProt Q86X83, whole entry, looked up: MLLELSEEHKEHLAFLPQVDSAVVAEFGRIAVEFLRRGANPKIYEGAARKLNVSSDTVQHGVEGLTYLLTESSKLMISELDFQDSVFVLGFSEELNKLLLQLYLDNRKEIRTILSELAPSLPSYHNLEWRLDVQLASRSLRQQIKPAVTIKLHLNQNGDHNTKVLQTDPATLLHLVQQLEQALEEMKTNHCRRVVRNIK
UniProt Q6UUV9: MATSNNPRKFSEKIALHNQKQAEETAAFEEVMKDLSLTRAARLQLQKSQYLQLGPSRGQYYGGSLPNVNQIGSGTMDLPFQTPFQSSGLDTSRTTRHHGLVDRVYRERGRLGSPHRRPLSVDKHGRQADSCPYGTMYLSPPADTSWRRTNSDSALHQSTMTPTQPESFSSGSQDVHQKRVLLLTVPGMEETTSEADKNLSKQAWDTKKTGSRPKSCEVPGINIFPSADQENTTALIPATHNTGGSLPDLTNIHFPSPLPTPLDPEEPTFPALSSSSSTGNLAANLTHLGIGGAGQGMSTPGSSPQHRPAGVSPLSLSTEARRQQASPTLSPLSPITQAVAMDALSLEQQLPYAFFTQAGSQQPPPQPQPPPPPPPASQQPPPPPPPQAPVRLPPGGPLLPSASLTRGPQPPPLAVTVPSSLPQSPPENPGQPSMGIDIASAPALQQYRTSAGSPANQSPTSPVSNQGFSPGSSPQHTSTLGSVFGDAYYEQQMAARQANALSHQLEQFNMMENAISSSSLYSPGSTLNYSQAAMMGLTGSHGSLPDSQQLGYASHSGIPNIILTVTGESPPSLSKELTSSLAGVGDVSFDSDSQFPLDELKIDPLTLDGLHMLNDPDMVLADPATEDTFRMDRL
UniProt Q9HCP0: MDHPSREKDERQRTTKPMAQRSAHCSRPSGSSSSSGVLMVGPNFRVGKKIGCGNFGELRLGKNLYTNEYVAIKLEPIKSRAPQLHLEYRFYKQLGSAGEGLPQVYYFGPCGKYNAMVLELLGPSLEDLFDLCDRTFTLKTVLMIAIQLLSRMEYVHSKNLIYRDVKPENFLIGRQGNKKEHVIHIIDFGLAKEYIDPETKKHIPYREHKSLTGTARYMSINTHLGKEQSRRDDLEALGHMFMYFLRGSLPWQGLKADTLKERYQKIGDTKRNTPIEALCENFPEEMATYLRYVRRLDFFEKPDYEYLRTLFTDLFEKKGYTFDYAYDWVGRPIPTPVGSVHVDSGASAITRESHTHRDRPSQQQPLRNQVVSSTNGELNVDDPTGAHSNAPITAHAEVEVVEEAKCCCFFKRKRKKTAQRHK
UniProt P12109: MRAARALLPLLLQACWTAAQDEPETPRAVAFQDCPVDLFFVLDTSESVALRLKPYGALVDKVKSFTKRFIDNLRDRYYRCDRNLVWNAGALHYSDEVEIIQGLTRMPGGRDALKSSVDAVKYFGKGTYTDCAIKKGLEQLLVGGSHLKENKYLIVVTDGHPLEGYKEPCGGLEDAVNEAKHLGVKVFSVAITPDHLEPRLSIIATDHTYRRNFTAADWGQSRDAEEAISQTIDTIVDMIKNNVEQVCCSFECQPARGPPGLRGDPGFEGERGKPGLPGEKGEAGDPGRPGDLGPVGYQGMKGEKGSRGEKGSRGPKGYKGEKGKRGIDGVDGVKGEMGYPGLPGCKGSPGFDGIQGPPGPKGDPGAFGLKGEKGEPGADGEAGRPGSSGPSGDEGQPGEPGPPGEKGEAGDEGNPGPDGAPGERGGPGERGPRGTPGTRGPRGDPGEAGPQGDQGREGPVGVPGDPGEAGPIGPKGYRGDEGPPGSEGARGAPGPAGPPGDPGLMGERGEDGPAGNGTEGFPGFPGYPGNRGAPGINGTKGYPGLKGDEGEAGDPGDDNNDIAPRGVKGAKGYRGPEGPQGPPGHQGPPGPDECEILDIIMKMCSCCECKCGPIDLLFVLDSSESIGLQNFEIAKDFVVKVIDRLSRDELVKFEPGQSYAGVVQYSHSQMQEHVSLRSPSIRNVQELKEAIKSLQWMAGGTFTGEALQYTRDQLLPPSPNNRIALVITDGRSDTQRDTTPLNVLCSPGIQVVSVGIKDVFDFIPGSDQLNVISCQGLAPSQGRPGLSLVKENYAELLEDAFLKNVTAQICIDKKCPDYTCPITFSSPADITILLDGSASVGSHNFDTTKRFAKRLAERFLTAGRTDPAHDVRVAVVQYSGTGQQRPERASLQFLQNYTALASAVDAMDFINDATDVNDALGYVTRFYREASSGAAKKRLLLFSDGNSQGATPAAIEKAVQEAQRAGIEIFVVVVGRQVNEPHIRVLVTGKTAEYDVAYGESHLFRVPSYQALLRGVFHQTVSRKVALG

[1] = compound: C/C(=N\NC(=O)C1=CC(=CC=C1)S(=O)(=O)N2CCOCC2)/C3=C(C=CC(=C3)Cl)O
In short: as §1

[2] = compound: C1=CC(=C(C=C1Cl)C2=NC3=NC=CN=C3C(=N2)NC4=CC=NC=C4)F
In short: as §1

[3] = compound: C1=CC(=CC=C1C2=NC3=C(N2)C=C(C=C3)C(=O)N)OC4=CC=C(C=C4)Cl
In short: as §1

[4] = compound: C1=CC2=C(C=CC(=C2)/C=C\3/C(=O)NC(=NCC4=CC=CS4)S3)N=C1
In short: as §1

[5] = compound: C1=CC2=NC=CN=C2C=C1/C=C/3\C(=O)NC(=O)S3
In short: as §1

[6] = compound: C1=CC=C(C=C1)C2=NC(=C(N2)C3=CC=NC=C3)C4=CC(=C(C=C4)Cl)O
In short: as §1

[7] = compound: C1=CC=C2C(=C1)C3=NNC4=CC=CC(=C43)C2=O
In short: as §1

[8] = compound: C1CCN(C1)C(=O)NC2=CC=CC(=C2)NC3=NC=C(C(=N3)NCCC4=CN=CN4)Br
In short: as §1

[9] = compound: C1CN(CCC1(CC2=CC=C(C=C2)Cl)N)C3=NC=NC4=C3C=CN4
In short: as §1

IRAK-1-4 Inhibitor I = compound: C1COCCN1CCN2C3=CC=CC=C3N=C2NC(=O)C4=CC(=CC=C4)[N+](=O)[O-] [IRAK-1-4 Inhibitor I]
In short: as §1

ibrutinib = compound: C=CC(=O)N1CCC[C@@H](n2nc(-c3ccc(Oc4ccccc4)cc3)c3c(N)ncnc32)C1 [ibrutinib]
In short: as §1

[10] = compound: CC(=O)c1cnc2ccc(-c3cc(Cl)c(O)c(Cl)c3)nc2c1N[C@H]1CC[C@H](CN(C)C)CC1
In short: as §1

ralimetinib = compound: CC(C)(C)Cn1c(N)nc2ccc(-c3[nH]c(C(C)(C)C)nc3-c3ccc(F)cc3)nc21 [ralimetinib]
In short: as §1

[11] = compound: CC(C)(O)CC(=O)NCCn1ccc2ncnc(Nc3ccc(Oc4cccc(C(F)(F)F)c4)c(Cl)c3)c21
In short: as §1

[12] = compound: CC(C)C1=C2N=C(C=C(N2N=C1)NCC3=CC=CC=C3)NCCCCCCN
In short: as §1

[13] = compound: CC(C)C[C@@H](C=O)NC(=O)[C@H](CC(C)C)NC(=O)[C@H](CC(C)C)NC(=O)OCc1ccccc1
In short: as §1

pinometostat = compound: CC(C)N(C[C@H]1O[C@@H](n2cnc3c(N)ncnc32)[C@H](O)[C@@H]1O)[C@H]1C[C@@H](CCc2nc3cc(C(C)(C)C)ccc3[nH]2)C1 [pinometostat]
In short: as §1

[14] = compound: CC1=C(C2=C(C=C1)C(=O)C3=CC=CC=C3N2CCCN)C
In short: as §1

[15] = compound: CC1=C(C(CC(=O)N1)C2=CC=C(C=C2)C(F)(F)F)C(=O)NC3=C(C=C4C(=C3)C=NN4)F
In short: as §1

Measured: log2 fold change

CPT2 (UniProt P23786)
inactive: erlotinib -0.096 | [1] -0.087 | [2] 0.068 | [3] 0.636 | [4] 0.07 | [5] 0.076 | [6] 0.163 | [7] 0.066 | [8] 0.004 | [9] 0.23 | IRAK-1-4 Inhibitor I 0.101 | ibrutinib 0.095 | [10] 0.201 | ralimetinib -0.079 | [12] -0.488 | [13] 0.16 | pinometostat -0.145 | [14] 0.256
active: [11] -0.704

CREM isoform 1 (UniProt Q03060)
inactive: erlotinib -0.09 | [1] 0.024 | [2] -0.02 | [3] 0.077 | [4] 0.042 | [5] -0.049 | [6] 0.021 | [7] 0.013 | [8] 0.093 | [9] -0.075 | ibrutinib 0.147 | [10] -0.123 | ralimetinib 0.039 | [11] 0.053 | [12] 0.074 | [13] 0.015 | [15] -0.082 | [14] 0.184

CPEB2 isoform 9 (UniProt Q7Z5Q1)
inactive: erlotinib 0.206 | [1] 0.16 | [2] 0.037 | [3] 0.207 | [4] -0.044 | [5] -0.066 | [6] 0.101 | [7] -0.084 | [8] 0.061 | [9] 0.023 | IRAK-1-4 Inhibitor I 0.038 | ibrutinib 0.111 | [10] -0.103 | ralimetinib 0.005 | [11] 0.064 | [12] -0.207 | [13] 0.093 | pinometostat -0.028 | [14] 0.014

COPS3 (UniProt Q9UNS2)
inactive: erlotinib -0.019 | [1] 0.035 | [2] 0.091 | [3] 0.016 | [4] 0.055 | [5] 0.01 | [6] -0.009 | [7] 0.007 | [8] 0.014 | [9] 0.014 | IRAK-1-4 Inhibitor I 0.029 | ibrutinib 0.011 | [10] -0.023 | ralimetinib -0.096 | [11] -0.014 | [12] 0.028 | [13] -0.065 | pinometostat -0.046 | [14] -0.003

CRLF3 (UniProt Q8IUI8)
inactive: erlotinib 0.09 | [1] -0.034 | [2] 0.036 | [3] -0.015 | [4] 0.076 | [5] 0.019 | [6] -0.018 | [7] -0.028 | [8] 0.027 | [9] -0.04 | IRAK-1-4 Inhibitor I 0 | ibrutinib -0.047 | [10] -0.079 | ralimetinib 0.008 | [11] -0.122 | [12] -0.166 | [13] 0.013 | pinometostat -0.001 | [14] -0.035

COQ9 (UniProt O75208)
inactive: erlotinib 0.035 | [1] 0.082 | [2] 0.006 | [3] 0.016 | [4] 0.034 | [5] 0.056 | [6] 0.012 | [7] 0.008 | [8] -0.018 | [9] -0.001 | IRAK-1-4 Inhibitor I 0.005 | ibrutinib 0.03 | [10] -0.007 | ralimetinib -0.055 | [11] 0.085 | [12] -0.092 | [13] -0.024 | pinometostat -0.062 | [14] 0.043

COPS8 (UniProt Q99627)
inactive: erlotinib 0.033 | [1] 0.032 | [2] -0.005 | [3] -0.002 | [4] 0.081 | [5] 0.008 | [6] 0.012 | [7] -0.042 | [8] -0.04 | [9] 0.015 | IRAK-1-4 Inhibitor I -0.006 | ibrutinib 0.039 | [10] -0.011 | ralimetinib -0.042 | [11] 0.031 | [12] 0.043 | [13] 0.027 | pinometostat -0.021 | [14] 0.13

COMMD2 (UniProt Q86X83)
inactive: erlotinib 0.114 | [1] 0.049 | [2] -0.053 | [3] 0.085 | [4] 0.091 | [5] -0.02 | [6] -0.017 | [7] 0.058 | [8] 0.071 | [9] -0.119 | IRAK-1-4 Inhibitor I -0.009 | ibrutinib -0.038 | [10] -0.119 | ralimetinib -0.023 | [11] -0.179 | [12] -0.271 | [13] 0.007 | pinometostat 0.037 | [14] 0.01

2 entries picked at random from those above, as already listed:
COQ9 (UniProt O75208)
inactive: erlotinib 0.035 | [1] 0.082 | [2] 0.006 | [3] 0.016 | [4] 0.034 | [5] 0.056 | [6] 0.012 | [7] 0.008 | [8] -0.018 | [9] -0.001 | IRAK-1-4 Inhibitor I 0.005 | ibrutinib 0.03 | [10] -0.007 | ralimetinib -0.055 | [11] 0.085 | [12] -0.092 | [13] -0.024 | pinometostat -0.062 | [14] 0.043

CRLF3 (UniProt Q8IUI8)
inactive: erlotinib 0.09 | [1] -0.034 | [2] 0.036 | [3] -0.015 | [4] 0.076 | [5] 0.019 | [6] -0.018 | [7] -0.028 | [8] 0.027 | [9] -0.04 | IRAK-1-4 Inhibitor I 0 | ibrutinib -0.047 | [10] -0.079 | ralimetinib 0.008 | [11] -0.122 | [12] -0.166 | [13] 0.013 | pinometostat -0.001 | [14] -0.035

(continued)

CRTC1 isoform 2 (UniProt Q6UUV9)
inactive: erlotinib 0.007 | [1] 0.07 | [2] -0.228 | [3] 0.068 | [4] 0.185 | [5] -0.052 | [6] -0.229 | [7] -0.051 | [8] -0.053 | [9] 0.021 | IRAK-1-4 Inhibitor I 0.026 | ibrutinib -0.061 | [10] -0.023 | ralimetinib 0.025 | [11] -0.042 | [12] 0.112 | [13] -0.041 | pinometostat -0.024 | [14] 0.072

CSNK1G1 (UniProt Q9HCP0)
inactive: erlotinib 0.056 | [2] -0.077 | [3] 0.068 | [5] 0.09 | [6] 0.14 | ibrutinib -0.011 | ralimetinib -0.28 | [11] -0.114 | [12] -0.069 | [13] -0.015 | [15] -0.075

COL6A1 (UniProt P12109)
inactive: erlotinib 0.024 | [1] -0.07 | [3] 0.129 | [4] 0.061 | [5] -0.158 | [6] -0.02 | [7] -0.11 | [8] 0.029 | [9] 0.111 | IRAK-1-4 Inhibitor I 0.029 | ibrutinib 0.332 | [10] 0.077 | ralimetinib -0.089 | [12] 0.195 | [13] 0.071 | pinometostat 0.025 | [15] 0.097 | [14] -0.125
